At least one compound was matched to its structure with a doubt left.
What was measured:
T47D cells = assay: Cell growth, alamarBlue assay; assay type: cell-based; details: 10 nM E2, 7-10 days; regardless of the presence of an ESR1 fusion protein
Procedure: Cell growth, motility and invasion assays—Cell growth assays of different ESR1 fusion protein expressing breast cancer cells that were first hormone-deprived and then subsequently treated either with 100 nM fulvestrant in the presence or absence of 10 nM E2 for 7-10 days were performed in 96-well plates using an alamarBlue™ assay as described (7). Cell growth reading values were normalized to that of control YFP cells, −E2.
To characterize each chimeric ESR1 fusion protein, HA-tagged cDNA constructs were expressed in two ER+ breast cancer cell lines (T47D and MCF7) by lentiviral transduction. Stable cell lines expressing yellow fluorescent protein (YFP) were generated as negative controls. Truncated ESR1 (ESR1-e6 protein) and wild-type ESR1 (ESR1-WT protein) were also stably expressed to provide over-expression controls (FIGS. 2A and 2D). When cells were treated with 100 nM fulvestrant, a selective ERα degrader that inhibits endogenous ERα (21), the level of ESR1 fusion protein was predictably unaffected. In comparison, the WT ERα protein was reliably degraded, providing an endogenous control for fulvestrant activity (FIGS. 2A and 2D). […] Cell growth was measured using an alamarBlue assay. […]

ER+ PDX tumors = assay: MOTERA signature score of ER+ PDX tumors with or without E2 in the drinking water; assay type: in vivo; details: ovariectomized SCID/beige mice

C[C@]12CC[C@@H]3c4ccc(O)cc4CC[C@H]3[C@@H]1CC[C@@H]2O [E2, estradiol]
cell growth (T47D cells): induced | mean MOTERA signature scores of ESR1-WT PDX tumors (ER+ PDX tumors; E2 in the drinking water): increased | MOTERA signature expression levels in WHIM18 ESR1-YAP1 PDX and PDXs expressing ESR1 LBD point mutations (ER+ PDX tumors; E2 supplementation): not affected
